Here are results for 3 substances from PMC9948614 (Frontiers in Molecular Biosciences, 2023).

For some assays here: Where a sequence shows no end group, the ends are not given.

Series [1] can be described thus: general procedure: Fmoc solid-phase peptide synthesis; amide chemmatrix resin (0.33 mmol/g) or Fmoc-Asp(tBu)-wang-LLresin (0.33 mmol/g); HCTU/NMM. The settings on record: for isolated yield: whole synthesis, scale 0.01 mmol.
In series [2] the test system is SK-MEL-28. In words: Intracellular trafficking, co-localization with endocytosis and intracellular markers. It counts as cell-based, human. As to conditions: SK-MEL-28, 488-C-ter 20 µM.
Series [3] has as its system MIA PaCa-2. Described as above. In kind it is cell-based, human.

In series [1], “EEQTHFHFESPKLIFKVQDYWILNDIMKKNLTGISLKSEEEDADSGEID” came in with an isolated yield of 9%.
With “ANSKAVCNLPKAGDETCSNKTEIRWYYNGTACEAFIFKGCGGNDNNFDRVDDCQRLC-NH2”, the oxidative folding yield in series [1] (oxidative folding step, several disulfide bridges, sequence written open) was found to be 75%. The substance also gave an isolated yield in series [1] (several disulfide bridges, sequence written open) of 13%.
“EEQTHFHFESPKLIFKVQDYWILNDIMKKNLTGISLKSEEEDADSGEID [C-ter, Synthetic C-terminal domain of Amblyomin-X, fragment 58-106 with cysteine 67 mutated to Serine]”: the “Co-localization with endocytosis markers (CTxB, TrF, dextran, cav-1)” value in series [2] was “preferentially co-localization with CTxB and cav-1”; in series [3] (MIA PaCa-2, 488-C-ter 20 µM) it was “no pathway seems to be predominant”. In addition, the Nuclear translocation entry in series [2] is listed as “nucleus is not the main fate”; in series [3] (MIA PaCa-2, 488-C-ter 20 µM), “nucleus is not the main fate”. Also, the “Co-localization with late endosomal markers LysoTracker and LAMP-2” value in series [3] (488-C-ter 20 µM, especially in MIA PaCa-2) is “found in the co-localization”.
